Source: the supplement of paper PMC10849652
The other results are listed elsewhere or left out.

By UniProt entry, the sequences of proteins in these tests, tags left out. Where a name states a change or a piece, a line headed by the entry shows the natural chain unless it says otherwise.
UniProt Q03013: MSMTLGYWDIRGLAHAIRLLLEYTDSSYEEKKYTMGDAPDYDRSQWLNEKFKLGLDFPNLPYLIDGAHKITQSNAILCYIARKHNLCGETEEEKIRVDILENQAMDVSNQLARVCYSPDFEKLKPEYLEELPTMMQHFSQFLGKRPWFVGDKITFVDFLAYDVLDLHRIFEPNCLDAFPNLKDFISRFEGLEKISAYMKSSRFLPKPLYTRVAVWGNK
UniProt Q9H0R4: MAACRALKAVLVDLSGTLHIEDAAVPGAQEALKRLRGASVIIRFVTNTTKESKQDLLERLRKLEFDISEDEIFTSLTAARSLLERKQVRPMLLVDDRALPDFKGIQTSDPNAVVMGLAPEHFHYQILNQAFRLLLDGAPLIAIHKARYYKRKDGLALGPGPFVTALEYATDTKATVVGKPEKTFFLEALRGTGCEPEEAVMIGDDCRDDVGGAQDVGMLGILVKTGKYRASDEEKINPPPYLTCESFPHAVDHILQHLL
UniProt P62993, whole entry, looked up: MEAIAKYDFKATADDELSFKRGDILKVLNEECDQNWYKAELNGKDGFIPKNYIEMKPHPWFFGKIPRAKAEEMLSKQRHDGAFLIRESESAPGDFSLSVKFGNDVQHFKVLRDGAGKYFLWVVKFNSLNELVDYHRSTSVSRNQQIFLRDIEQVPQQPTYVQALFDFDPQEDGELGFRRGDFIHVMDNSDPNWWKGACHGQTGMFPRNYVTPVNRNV
UniProt Q6Y1H2: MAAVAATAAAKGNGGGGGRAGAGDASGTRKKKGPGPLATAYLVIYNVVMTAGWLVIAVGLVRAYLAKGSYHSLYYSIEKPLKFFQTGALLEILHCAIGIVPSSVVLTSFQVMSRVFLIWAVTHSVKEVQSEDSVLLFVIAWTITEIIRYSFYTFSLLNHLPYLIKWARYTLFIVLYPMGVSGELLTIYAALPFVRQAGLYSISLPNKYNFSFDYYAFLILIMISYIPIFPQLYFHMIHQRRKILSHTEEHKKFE
UniProt Q9Y2Q3: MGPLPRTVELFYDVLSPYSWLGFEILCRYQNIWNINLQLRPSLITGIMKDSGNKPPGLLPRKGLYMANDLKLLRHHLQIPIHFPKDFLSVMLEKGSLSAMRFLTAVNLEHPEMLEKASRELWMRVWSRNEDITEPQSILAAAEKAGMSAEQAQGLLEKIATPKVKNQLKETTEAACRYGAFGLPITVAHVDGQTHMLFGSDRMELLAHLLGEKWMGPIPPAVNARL
UniProt Q12789: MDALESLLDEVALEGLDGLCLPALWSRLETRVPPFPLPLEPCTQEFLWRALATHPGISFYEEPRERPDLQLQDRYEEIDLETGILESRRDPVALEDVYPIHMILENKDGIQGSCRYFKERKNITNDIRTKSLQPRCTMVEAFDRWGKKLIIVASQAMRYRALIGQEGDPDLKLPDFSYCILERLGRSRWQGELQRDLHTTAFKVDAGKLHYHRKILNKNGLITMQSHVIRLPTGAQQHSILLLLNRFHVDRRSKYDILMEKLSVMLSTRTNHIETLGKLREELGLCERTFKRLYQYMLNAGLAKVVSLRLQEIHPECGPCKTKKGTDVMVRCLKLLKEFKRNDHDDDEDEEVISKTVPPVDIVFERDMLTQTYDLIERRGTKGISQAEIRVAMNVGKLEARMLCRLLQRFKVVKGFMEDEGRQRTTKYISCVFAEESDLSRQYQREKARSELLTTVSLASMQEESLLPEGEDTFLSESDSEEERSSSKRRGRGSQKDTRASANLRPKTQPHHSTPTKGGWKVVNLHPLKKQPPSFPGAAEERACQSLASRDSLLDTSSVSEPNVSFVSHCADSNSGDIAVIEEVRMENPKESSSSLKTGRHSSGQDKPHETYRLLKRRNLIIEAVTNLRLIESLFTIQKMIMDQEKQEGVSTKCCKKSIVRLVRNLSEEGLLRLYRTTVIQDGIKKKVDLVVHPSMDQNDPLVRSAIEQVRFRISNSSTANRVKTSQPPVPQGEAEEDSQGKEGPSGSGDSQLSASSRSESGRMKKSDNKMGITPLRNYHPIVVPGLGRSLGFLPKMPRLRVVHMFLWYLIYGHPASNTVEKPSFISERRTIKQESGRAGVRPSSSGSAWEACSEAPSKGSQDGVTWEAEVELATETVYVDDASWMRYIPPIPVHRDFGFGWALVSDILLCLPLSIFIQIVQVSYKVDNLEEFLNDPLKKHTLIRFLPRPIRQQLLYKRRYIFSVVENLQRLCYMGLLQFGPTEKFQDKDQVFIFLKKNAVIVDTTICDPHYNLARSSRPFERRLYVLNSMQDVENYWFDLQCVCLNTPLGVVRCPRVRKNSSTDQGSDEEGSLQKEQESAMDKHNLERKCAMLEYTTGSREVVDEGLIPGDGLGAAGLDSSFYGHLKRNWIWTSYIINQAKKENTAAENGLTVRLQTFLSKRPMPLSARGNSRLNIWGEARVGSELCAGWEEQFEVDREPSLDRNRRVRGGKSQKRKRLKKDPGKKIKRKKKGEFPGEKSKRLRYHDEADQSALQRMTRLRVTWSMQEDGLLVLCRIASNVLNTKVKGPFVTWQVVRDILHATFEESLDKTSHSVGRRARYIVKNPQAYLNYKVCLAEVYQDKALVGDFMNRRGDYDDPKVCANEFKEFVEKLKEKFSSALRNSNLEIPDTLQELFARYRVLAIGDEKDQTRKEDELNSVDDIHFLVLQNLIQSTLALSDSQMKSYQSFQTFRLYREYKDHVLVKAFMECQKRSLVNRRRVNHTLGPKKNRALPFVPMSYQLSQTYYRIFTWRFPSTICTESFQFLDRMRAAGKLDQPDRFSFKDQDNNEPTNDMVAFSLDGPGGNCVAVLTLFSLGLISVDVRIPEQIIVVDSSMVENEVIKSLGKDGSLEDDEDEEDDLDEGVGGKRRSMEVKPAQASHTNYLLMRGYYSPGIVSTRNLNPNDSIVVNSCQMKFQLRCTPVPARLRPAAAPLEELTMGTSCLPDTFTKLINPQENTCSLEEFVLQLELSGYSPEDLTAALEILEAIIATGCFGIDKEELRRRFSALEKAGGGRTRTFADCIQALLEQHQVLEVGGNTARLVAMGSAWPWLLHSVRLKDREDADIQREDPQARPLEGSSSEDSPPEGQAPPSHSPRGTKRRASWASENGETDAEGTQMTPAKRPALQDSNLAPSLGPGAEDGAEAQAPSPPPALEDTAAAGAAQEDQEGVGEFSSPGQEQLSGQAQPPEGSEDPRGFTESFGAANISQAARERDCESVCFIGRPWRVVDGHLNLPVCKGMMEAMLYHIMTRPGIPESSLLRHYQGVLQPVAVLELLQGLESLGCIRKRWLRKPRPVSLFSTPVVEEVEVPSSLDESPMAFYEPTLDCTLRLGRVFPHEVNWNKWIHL
UniProt Q9UBN7: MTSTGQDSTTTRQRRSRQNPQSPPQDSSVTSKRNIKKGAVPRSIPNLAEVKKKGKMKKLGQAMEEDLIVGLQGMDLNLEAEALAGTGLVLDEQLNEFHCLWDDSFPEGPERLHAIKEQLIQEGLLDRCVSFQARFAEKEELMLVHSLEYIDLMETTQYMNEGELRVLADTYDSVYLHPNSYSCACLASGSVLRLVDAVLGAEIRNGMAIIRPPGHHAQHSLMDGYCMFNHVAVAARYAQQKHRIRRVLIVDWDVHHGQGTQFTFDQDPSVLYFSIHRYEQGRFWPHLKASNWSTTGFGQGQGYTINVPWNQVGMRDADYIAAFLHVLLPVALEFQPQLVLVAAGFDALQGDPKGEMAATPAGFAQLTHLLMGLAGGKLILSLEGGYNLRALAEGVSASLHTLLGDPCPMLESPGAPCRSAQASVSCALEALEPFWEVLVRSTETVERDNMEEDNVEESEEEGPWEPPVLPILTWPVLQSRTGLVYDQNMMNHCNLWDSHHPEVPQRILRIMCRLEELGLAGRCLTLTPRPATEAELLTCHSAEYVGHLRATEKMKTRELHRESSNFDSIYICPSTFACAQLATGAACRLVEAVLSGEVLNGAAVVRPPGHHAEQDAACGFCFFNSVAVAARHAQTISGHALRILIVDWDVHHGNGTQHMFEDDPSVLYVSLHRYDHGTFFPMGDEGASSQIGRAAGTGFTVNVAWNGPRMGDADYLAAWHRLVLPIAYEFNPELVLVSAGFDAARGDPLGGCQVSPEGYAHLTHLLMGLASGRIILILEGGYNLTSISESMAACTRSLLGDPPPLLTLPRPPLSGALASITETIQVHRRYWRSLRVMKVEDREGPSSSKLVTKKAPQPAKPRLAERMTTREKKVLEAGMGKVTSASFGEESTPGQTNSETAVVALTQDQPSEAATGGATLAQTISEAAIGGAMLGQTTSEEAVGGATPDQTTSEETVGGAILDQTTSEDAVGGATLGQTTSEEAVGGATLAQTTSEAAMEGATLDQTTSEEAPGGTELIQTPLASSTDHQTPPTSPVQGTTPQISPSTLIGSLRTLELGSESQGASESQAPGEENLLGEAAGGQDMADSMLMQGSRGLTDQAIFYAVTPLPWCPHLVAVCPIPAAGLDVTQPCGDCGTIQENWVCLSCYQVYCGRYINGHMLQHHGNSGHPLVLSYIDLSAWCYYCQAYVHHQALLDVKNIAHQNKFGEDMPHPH
UniProt P69905, whole entry, looked up: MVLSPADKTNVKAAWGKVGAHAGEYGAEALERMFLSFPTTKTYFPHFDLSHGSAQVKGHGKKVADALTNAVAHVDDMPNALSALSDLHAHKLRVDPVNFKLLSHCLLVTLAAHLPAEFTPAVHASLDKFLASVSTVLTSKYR
UniProt Q9Y5Q9: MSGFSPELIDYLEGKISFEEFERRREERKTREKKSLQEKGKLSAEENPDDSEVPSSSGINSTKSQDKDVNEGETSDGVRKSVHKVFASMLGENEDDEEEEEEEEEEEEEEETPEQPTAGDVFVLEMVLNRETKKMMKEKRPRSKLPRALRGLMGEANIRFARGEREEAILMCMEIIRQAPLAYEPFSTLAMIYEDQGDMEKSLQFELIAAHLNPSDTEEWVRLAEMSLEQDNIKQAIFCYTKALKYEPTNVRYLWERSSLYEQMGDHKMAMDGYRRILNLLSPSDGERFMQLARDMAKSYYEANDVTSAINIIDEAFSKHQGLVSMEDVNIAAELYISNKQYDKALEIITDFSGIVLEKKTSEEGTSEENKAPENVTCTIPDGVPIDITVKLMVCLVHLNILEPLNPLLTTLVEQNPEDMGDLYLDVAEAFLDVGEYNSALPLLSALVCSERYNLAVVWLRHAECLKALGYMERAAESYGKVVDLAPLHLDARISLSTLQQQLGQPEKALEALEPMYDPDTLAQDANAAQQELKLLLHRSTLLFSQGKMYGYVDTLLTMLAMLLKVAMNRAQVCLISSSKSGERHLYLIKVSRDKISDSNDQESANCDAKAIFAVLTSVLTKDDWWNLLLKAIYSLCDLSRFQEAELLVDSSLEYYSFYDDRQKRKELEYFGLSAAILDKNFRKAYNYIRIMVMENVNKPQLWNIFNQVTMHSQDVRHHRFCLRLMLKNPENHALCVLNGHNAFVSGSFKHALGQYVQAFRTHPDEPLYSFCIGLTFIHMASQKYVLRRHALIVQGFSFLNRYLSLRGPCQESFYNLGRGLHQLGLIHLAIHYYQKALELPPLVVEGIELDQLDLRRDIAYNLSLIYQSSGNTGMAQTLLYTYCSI
UniProt Q9P0R6: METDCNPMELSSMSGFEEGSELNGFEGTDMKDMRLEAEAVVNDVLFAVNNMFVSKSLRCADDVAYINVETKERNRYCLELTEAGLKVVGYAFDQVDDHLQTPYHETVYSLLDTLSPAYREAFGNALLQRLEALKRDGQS
UniProt Q13889: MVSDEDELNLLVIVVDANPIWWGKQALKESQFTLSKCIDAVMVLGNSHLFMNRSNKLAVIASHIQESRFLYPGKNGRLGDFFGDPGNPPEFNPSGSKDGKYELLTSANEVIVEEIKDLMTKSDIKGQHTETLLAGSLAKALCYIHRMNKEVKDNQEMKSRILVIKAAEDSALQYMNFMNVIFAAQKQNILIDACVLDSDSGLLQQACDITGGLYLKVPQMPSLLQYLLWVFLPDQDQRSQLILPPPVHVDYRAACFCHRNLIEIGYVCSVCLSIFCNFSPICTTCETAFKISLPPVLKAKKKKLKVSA
UniProt P10412, whole entry, looked up: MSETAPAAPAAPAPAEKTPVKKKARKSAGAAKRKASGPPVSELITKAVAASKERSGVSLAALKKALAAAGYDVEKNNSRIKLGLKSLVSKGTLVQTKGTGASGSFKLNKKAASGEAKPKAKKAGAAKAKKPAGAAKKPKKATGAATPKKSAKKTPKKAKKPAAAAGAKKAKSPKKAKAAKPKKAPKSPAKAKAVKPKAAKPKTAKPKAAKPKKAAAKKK
UniProt Q9P035: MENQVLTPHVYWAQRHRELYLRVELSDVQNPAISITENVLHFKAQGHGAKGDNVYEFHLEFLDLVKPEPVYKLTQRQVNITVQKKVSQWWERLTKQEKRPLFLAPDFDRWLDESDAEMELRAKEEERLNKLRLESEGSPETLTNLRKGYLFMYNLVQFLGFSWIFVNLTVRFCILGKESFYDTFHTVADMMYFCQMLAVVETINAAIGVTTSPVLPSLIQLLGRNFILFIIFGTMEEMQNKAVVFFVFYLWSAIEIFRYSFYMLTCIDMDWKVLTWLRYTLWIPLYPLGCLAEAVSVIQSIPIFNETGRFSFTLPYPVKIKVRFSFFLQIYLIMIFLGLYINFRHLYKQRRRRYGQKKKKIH

Key:
Experiment in all cases: log2 fold change, soluble protein after heating vs DMSO (PISA); higher = thermal stabilisation; K562 lysate, 10 uM; active = over 0.2 and 3.5 SD of the protein, either way, in both replicates (recomputed)
[1] = compound: C1=CC=C(C=C1)[C@H](COC2=CC3=C(C=C2)NC(=O)N3)NC(=O)C4=CC=CN(C4=O)CC5=CC(=C(C=C5)F)F
Summary of the method: (§1)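 Following dounce homogenisation of K562 pellets in PBS pH 7.4 with 1 mM MgCl2, crude extract at 1 mg/mL protein was incubated for 30 min with 10 μM compound. Aliquots were then heated for 3 min over 48°C-58°C and pooled, NP-40 was added to 0.5% at 4°C, and soluble protein was recovered as the supernatant at 21,000xg for 90 min. Channel-sum-equalised TMTpro 16plex LC-MS/MS quantified this protein. Each value, from duplicates, is a log-two fold change in thermal stability relative to solvent controls.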

[2] = compound: CC1=C(SC2=C1C(=N[C@H](C3=NN=C(N32)C)CC(=O)N)C4=CC=C(C=C4)Cl)C
Summary of the method: as §1

[3] = compound: CC1=C2C(=CC=C1)N=C(N(C2=O)C3=CC=CC=C3C)CN4C=NC5=C(N=CN=C54)N
Summary of the method: as §1

[4] = compound: Cc1sc2c(c1C)C(c1ccc(Cl)cc1)=N[C@@H](CC(=O)OC(C)(C)C)c1nnc(C)n1-2
Summary of the method: as §1

[5] = compound: c1ccc([C@@H]2C[C@H]2NC2CCNCC2)cc1
Summary of the method: as §1

Measured: log2 fold change

HADHB (UniProt P55084)
inactive: [1] 0.053 | [2] 0.021 | [3] 0.105 | [4] 0.167 | [5] -0.048

HCFC2 (UniProt Q9Y5Z7)
inactive: [1] 0.053 | [2] 0.157

HABP4 (UniProt Q5JVS0)
inactive: [1] 0.198 | [2] 0.151

HBZ (UniProt P02008)
inactive: [1] -0.026 | [2] -0.027 | [3] 0.025 | [4] 0.01 | [5] 0.039

GSTM4 (UniProt Q03013)
inactive: [1] -0.04 | [2] -0.053 | [3] 0.03 | [4] 0.09 | [5] -0.016

H1-2 (UniProt P16403)
inactive: [1] -0.004 | [2] -0.002 | [3] -0.028 | [4] -0.063 | [5] -0.058

HAUS2 (UniProt Q9NVX0)
inactive: [1] -0.186 | [2] 0.148 | [3] 0.077 | [4] 0.016 | [5] 0.176

GTF2E1 (UniProt P29083)
inactive: [1] 0.029 | [2] 0.012 | [3] -0.006 | [4] -0.022 | [5] -0.078

HEATR5A (UniProt Q86XA9)
inactive: [1] 0.025 | [2] -0.006 | [3] 0.072 | [4] -0.025 | [5] 0.038

HDHD2 (UniProt Q9H0R4)
inactive: [1] 0.065 | [2] -0.007 | [3] 0.014 | [4] 0.011 | [5] 0.014

GRB2 (UniProt P62993)
inactive: [1] 0.063 | [2] -0.012 | [3] -0.001 | [4] -0.022 | [5] -0.002

HACD2 (UniProt Q6Y1H2)
inactive: [1] -0.146 | [2] 0.251

HDAC10 (UniProt Q969S8)
inactive: [1] -0.076 | [2] 0.115 | [3] 0.21 | [4] 0.197 | [5] -0.055

GSTK1 (UniProt Q9Y2Q3)
inactive: [1] 0.046 | [2] -0.03 | [3] 0.028 | [4] 0.014 | [5] 0.023

5 entries drawn at random from the list so far:
HAUS2 (UniProt Q9NVX0)
inactive: [1] -0.186 | [2] 0.148 | [3] 0.077 | [4] 0.016 | [5] 0.176

GRB2 (UniProt P62993)
inactive: [1] 0.063 | [2] -0.012 | [3] -0.001 | [4] -0.022 | [5] -0.002

HDAC10 (UniProt Q969S8)
inactive: [1] -0.076 | [2] 0.115 | [3] 0.21 | [4] 0.197 | [5] -0.055

HEATR5A (UniProt Q86XA9)
inactive: [1] 0.025 | [2] -0.006 | [3] 0.072 | [4] -0.025 | [5] 0.038

HACD2 (UniProt Q6Y1H2)
inactive: [1] -0.146 | [2] 0.251

The results go on:

GSE1 (UniProt Q14687)
inactive: [1] -0.031 | [2] 0.005 | [3] -0.002 | [4] -0.015 | [5] 0.184

GTF3C1 (UniProt Q12789)
inactive: [1] -0.048 | [2] 0.044 | [3] 0.012 | [4] -0.003 | [5] -0.005

HDAC6 (UniProt Q9UBN7)
inactive: [1] 0.029 | [2] 0.036 | [3] -0.017 | [4] -0.007 | [5] 0.042

HAX1 (UniProt O00165)
inactive: [1] -0.063 | [2] -0.029 | [3] 0.026 | [4] 0.033 | [5] 0.017

HAUS7 isoform 2 (UniProt Q99871)
inactive: [1] 0.163 | [2] 0.036 | [3] 0.019 | [4] 0.069 | [5] 0.032

HBE1 (UniProt P02100)
inactive: [1] 0.028 | [2] -0.071 | [3] -0.032 | [4] -0.015 | [5] 0.043

H1-5 (UniProt P16401)
inactive: [1] 0.013 | [2] -0.009 | [3] -0.014 | [4] 0.104 | [5] 0.013

HBA1 (UniProt P69905)
inactive: [1] -0.046 | [2] -0.019 | [3] 0.009 | [4] -0.016 | [5] 0.113

GTF3C3 (UniProt Q9Y5Q9)
inactive: [1] -0.018 | [2] -0.019 | [3] 0.03 | [4] -0.052 | [5] 0.032

H1-3 (UniProt P16402)
inactive: [1] 0.019 | [2] -0.005 | [3] -0.029 | [4] -0.021 | [5] 0.022

HAGH (UniProt Q16775)
inactive: [1] -0.007 | [2] 0.001 | [3] 0.041 | [4] 0.009 | [5] -0.041

HBD (UniProt P02042)
inactive: [1] 0.006 | [2] -0.046 | [3] -0.014 | [4] 0.001 | [5] -0.033

GTF2F1 (UniProt P35269)
inactive: [1] 0.022 | [2] 0.044 | [3] 0.003 | [4] 0.035 | [5] -0.081

GTF2H2 (UniProt Q13888)
inactive: [1] 0.018 | [2] 0.003 | [3] 0.073 | [4] -0.047 | [5] -0.075

GTPBP2 (UniProt Q9BX10)
inactive: [1] 0.019 | [2] 0.021 | [3] 0.025 | [4] 0.049 | [5] 0.034

GSKIP (UniProt Q9P0R6)
inactive: [1] -0.043 | [2] -0.021 | [3] 0.005 | [4] 0.031 | [5] -0.018

H1FX (UniProt Q92522)
inactive: [1] 0.035 | [2] -0.034 | [3] -0.026 | [4] 0.034 | [5] 0.019

HCLS1 (UniProt P14317)
inactive: [1] 0.015 | [2] 0.005 | [3] -0.027 | [4] 0.009 | [5] -0.006

GRB10 (UniProt Q13322)
inactive: [1] 0.03 | [2] 0.022 | [3] 0.024 | [4] 0.045 | [5] -0.078

GTSF1 (UniProt Q8WW33)
inactive: [1] 0.088 | [2] -0.067 | [3] 0.004 | [4] 0.039 | [5] -0.006

H2AZ1 (UniProt P0C0S5)
inactive: [1] 0.003 | [2] -0.036 | [3] 0.001 | [4] 0.173 | [5] 0.051

GTF2H3 (UniProt Q13889)
inactive: [1] -0.016 | [2] 0.04 | [3] 0.032 | [4] 0.002 | [5] -0.02

H4C1 (UniProt P62805)
inactive: [1] -0.063 | [2] 0.037 | [3] -0.031 | [5] 0.125
active: [4] 0.664

GSPT2 (UniProt Q8IYD1)
inactive: [1] -0.013 | [2] 0.029 | [3] 0.029 | [4] -0.052 | [5] -0.08

HBS1L isoform 2 (UniProt Q9Y450)
inactive: [1] 0.076 | [2] 0.042 | [3] -0.031 | [4] -0.033 | [5] 0.02

HAT1 (UniProt O14929)
inactive: [1] 0.066 | [2] -0.02 | [3] 0.008 | [4] -0.016 | [5] -0.042

HDHD3 (UniProt Q9BSH5)
inactive: [1] -0.055 | [2] -0.057 | [3] -0.004 | [4] -0.013 | [5] 0.025

GYPC (UniProt P04921)
inactive: [1] -0.088 | [2] -0.064 | [3] -0.013 | [4] -0.003 | [5] 0.031

H1-4 (UniProt P10412)
inactive: [1] 0.014 | [2] -0.01 | [3] -0.06 | [4] -0.066 | [5] -0.08

HDLBP, A0A024R4E5
inactive: [1] -0.024 | [2] -0.013 | [3] 0.017 | [4] -0.018 | [5] 0.008

HDDC2 (UniProt Q7Z4H3)
inactive: [1] 0.011 | [2] -0.023 | [3] -0.032 | [4] 0.045 | [5] 0.03

GXYLT1 (UniProt Q4G148)
inactive: [1] 0.142 | [2] -0.034 | [3] 0.029 | [4] 0.061 | [5] -0.054

GTF2A2 (UniProt P52657)
inactive: [1] 0.018 | [2] -0.017 | [3] 0.002 | [4] -0.042 | [5] -0.127

GRAP2 (UniProt O75791)
inactive: [1] -0.006 | [2] 0.06 | [3] 0.003 | [4] 0.017 | [5] 0.123

HACD3 (UniProt Q9P035)
inactive: [1] -0.09 | [2] 0.046 | [3] -0.005 | [4] -0.07 | [5] 0.017

GTF3C4 (UniProt Q9UKN8)
inactive: [1] 0.023 | [2] -0.057 | [3] 0.025 | [4] -0.032 | [5] -0.003

GRIPAP1 (UniProt Q4V328)
inactive: [1] 0.007 | [2] -0.005 | [3] 0.007 | [4] -0.02 | [5] 0.026

GTF2E2 (UniProt P29084)
inactive: [1] 0.019 | [2] -0.013 | [3] 0.026 | [4] 0.05 | [5] 0.001

HADH isoform 2 (UniProt Q16836)
inactive: [1] 0.012 | [2] 0.004 | [3] -0.047 | [4] 0.013 | [5] 0.086

HAUS3 (UniProt Q68CZ6)
inactive: [1] -0.035 | [2] 0.023 | [3] 0.051 | [4] -0.032 | [5] 0.064

HAUS1 (UniProt Q96CS2)
inactive: [1] 0 | [2] -0.07 | [3] 0.02 | [4] 0 | [5] 0.083
